Test results: PubChem BioAssay (Tox21)
“And” between values parts separate entries of the source, which are not always exact repeats. Equal entries are not always repeated. Inconclusive results, whose numbers are uncertain, are shown with a selection of clear calls. Potencies of inconclusive entries are doubtful fits and often do not repeat. Some structures have more than one record in an assay (separate samples or runs), and their calls can disagree. The source made the active and inactive calls. Unless noted, calls follow the shape of the dose curve; as a rule, active = well fitted curve in the direction sought with a large enough effect in the repeat runs; inconclusive = weak or mixed curves; inactive = no such curve, though single readings can be large; an effect the other way counts as inactive or inconclusive.
% is scaled to controls: 0 for no effect and ±100 for the full control effect; potency is read from the fitted curve at half-maximal effect.

By UniProt entry, the sequences of proteins in these tests, tags left out. Where a name states a change or a piece, a line headed by the entry shows the natural chain unless it says otherwise.
UniProt P19793: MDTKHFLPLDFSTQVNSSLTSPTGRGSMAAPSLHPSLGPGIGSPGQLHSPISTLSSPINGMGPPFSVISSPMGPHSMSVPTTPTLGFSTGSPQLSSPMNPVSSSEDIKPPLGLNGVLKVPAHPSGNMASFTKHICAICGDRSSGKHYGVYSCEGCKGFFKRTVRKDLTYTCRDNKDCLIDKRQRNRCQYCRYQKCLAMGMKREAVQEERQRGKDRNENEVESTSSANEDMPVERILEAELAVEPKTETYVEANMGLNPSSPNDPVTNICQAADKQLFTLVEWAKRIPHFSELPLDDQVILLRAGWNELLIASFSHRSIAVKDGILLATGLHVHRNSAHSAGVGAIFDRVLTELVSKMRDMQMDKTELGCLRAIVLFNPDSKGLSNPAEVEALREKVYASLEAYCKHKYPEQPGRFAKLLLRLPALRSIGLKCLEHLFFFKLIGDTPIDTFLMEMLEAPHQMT

Target: Retinoic acid receptor RXR-alpha (Homo sapiens) (UniProt P19793)
Assay: qHTS assay to identify small molecule agonists of the RXR signaling pathway (AID 1159527; calls by dose curve; also: nearly all actives have a fitted effect of over 35% in size)
Conditions: HEK293T RXRa-UAS-bla, beta-lactamase ratio, 16 h; activation: at 76.8 µM (top of the series) unless noted
Procedure, shortened: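 Fluorescence ratio readout (460 vs 530 nm) from GeneBLAzer RXR-alpha HEK 293T cells after 16 hr compound treatment; cells seeded 5 hr beforehand in low-serum, charcoal-stripped medium.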
In the case of CC(C)N(CCC(C(N)=O)(c1ccccc1)c1ccccn1)C(C)C (stereo not drawn), the activation is reported as inconclusive: 8.29% [at 35.3 µM].
With O=C(NC(=O)c1ccccc1Cl)Nc1ccc(OC(F)(F)F)cc1 the “activation” value was inactive: -4.64%.
With CC(C)CCCCCOC(=O)c1ccccc1C(=O)OCCCCCC(C)C the Potency was inconclusive: 38.4 µM [activator, partial curve, poor fit].
For Nn1cnnc1, the Potency was “inactive”.
In the case of CCCN(CCC)N=O, the activation is reported as inconclusive: 22.4%.
With CCN(CC)C(=O)SCc1ccc(Cl)cc1 the Potency was “inactive”.
With CCC(Br)(CC)C(=O)NC(N)=O the “activation” value was inactive: -4.81%.
In the case of O=C1C[C@@H]2OCC=C3CN4CC[C@]56c7ccccc7N1[C@H]5[C@H]2[C@H]3C[C@H]46, the activation is reported as inconclusive: -1.14% [at 35.3 µM].
For CCC(=O)OC1(c2ccccc2)CCN(C)CC1, the “activation” value was inactive: -4.6%.
For O=Cc1ccc(Cl)cc1Cl, the “activation” value was inactive: 3.69%.
With COC(C)(C)CCCC(C)C/C=C/C(C)=C/C(=O)OC(C)C (stereo not drawn) the Potency was “inactive”.
With C[C@]12C=CC(=O)C=C1CC[C@@H]1[C@@H]2CC[C@@]2(C)[C@H]1CC[C@]2(C)O the “activation” value was inactive: 2.08% [at 35.3 µM].
In the case of CC(=O)Nc1cc([As](=O)(O)O)ccc1O, the activation is reported as inconclusive: -3.8% [at 35.3 µM].
In the case of CC(C)OS(C)(=O)=O, the “activation” value is reported as inactive: 5.42%.
For Nc1nc(N)c(N)c(N)n1, the Potency was inconclusive: 12.4 µM [activator, full curve, poor fit].
For O=Cc1ccco1, the activation was inconclusive: 16.6%.

System: not listed separately
Assay: qHTS assay to identify small molecule agonists of the RXR signaling pathway - cell viability counter screen (AID 1159529); also: nearly all actives have a fitted effect of over 50% in size;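 as to activity change, negative = cytotoxicity: HEK 293T cells carrying an RXR-alpha UAS beta-lactamase reporter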
Conditions: RXR-alpha-bla HEK293T viability, CellTiter-Glo, 16 h; series mostly up to 76.8 µM; activity change, negative = cytotoxicity: at the top concentration
Procedure, shortened: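 Viability read-out for the RXR-alpha agonist qHTS: luminescent CellTiter-Glo signal after 30 min at RT. HEK 293T bla reporter cells, 2% charcoal-stripped FBS, 16 hr compound incubation; tetraoctyl ammonium bromide as cytotoxic control.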
With C=CC(=O)OCCN(C)C the “activity change, negative = cytotoxicity” value was inactive: 0.122%.
In the case of OCCSSCCO, the “activity change, negative = cytotoxicity” value is reported as inactive: -4.21%.
For Cn1cc(-c2ccccc2)c(=O)c(-c2cccc(C(F)(F)F)c2)c1, the Potency was inconclusive: 38 µM [cytotoxic, partial curve, poor fit].
For CN(C)CCC#N, the Potency was inconclusive: 0.502 µM [rising, single point].
With CC(=O)[O-].[Tl+] the Potency was inconclusive: 0.139 µM [cytotoxic, full curve].
In the case of Fc1cccc(Cl)c1CCl, the Potency is reported as inconclusive: 49 µM [rising, partial curve, poor fit].
In the case of O=P1(N(CCCl)CCCl)NCCCO1 (stereo not drawn), the Potency is reported as “inactive”.
With CC(c1ccc(O)cc1)c1ccc(O)cc1 the Potency was inconclusive: 7.28 µM [cytotoxic, full curve].

System: not listed separately
Assay: qHTS assay to identify small molecule antagonists of the retinoid acid receptor (RAR) signaling pathway - cell viability counter screen (AID 1159551); also: nearly all actives have a fitted effect of over 35% in size
Conditions: C3RL4 cells viability, ATP luminescence (CellTiter-Glo), 6 h; series mostly up to 92.4 µM; activity change, negative = cytotoxicity: at the top concentration
Procedure, shortened: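 C3RL4 RARE-luciferase line; cpds + retinol 1 uM final, 6 h, 37 C/5% CO2; CellTiter-Glo ATP luminescence, 30 min RT.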
With O=C(NC(=O)c1ccccc1Cl)Nc1ccc(OC(F)(F)F)cc1 the “activity change, negative = cytotoxicity” value was inactive: -0.473%.
For C=CC(=O)OCC(C)O (stereo not drawn), the Potency was inconclusive: 63.1 µM [rising, partial curve, poor fit].
In the case of C[C@]12C=CC(=O)C=C1CC[C@@H]1[C@@H]2CC[C@@]2(C)[C@H]1CC[C@]2(C)O, the “activity change, negative = cytotoxicity” value is reported as inactive: 0.889% [at 42.5 µM].
With CC(=O)Nc1cc([As](=O)(O)O)ccc1O the Potency was inconclusive: 33.5 µM [rising, partial curve, poor fit].
In the case of Nc1nc(N)c(N)c(N)n1, the “activity change, negative = cytotoxicity” value is reported as inactive: 0.42%.
For CCC(Cl)CCl (stereo not drawn), the “activity change, negative = cytotoxicity” value was inactive: 4.33%.

System: not listed separately
Assay: qHTS assay to identify small molecule agonists of the retinoic acid receptor (RAR) signaling pathway (AID 1159553)
Conditions: C3RL4 RARE luciferase reporter, agonist, 6 h; activation: at 73.3 µM (top of the series) unless noted
Procedure, shortened: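 RARE-luc C3RL4 cells; overnight attachment 37 C/5% CO2; compound (DMSO) 6 hr; luciferase reagent, 30 min RT; luminescence read-out.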
In the case of C=CCC1([C@H](C)CCC)C(=O)NC(=O)NC1=O, the activation is reported as inconclusive: -0.502% [phenotype inactive].
In the case of CC(C)N(CCC(C(N)=O)(c1ccccc1)c1ccccn1)C(C)C (stereo not drawn), the “activation” value is reported as inactive: 2.16%.
In the case of CCOC(=O)NC(C)(C)Cc1ccc(Cl)cc1, the “activation” value is reported as inactive: -0.219%.
With CC(Cc1ccccc1)NCCn1cnc2c1c(=O)n(C)c(=O)n2C (stereo not drawn) the Potency was inconclusive: 67.7 µM [activator].
With OCCOc1ccccc1 the Potency was “inactive”.
With C=CC(=O)OCC(C)O (stereo not drawn) the “activation” value was inactive: 5.18% [at 94.8 µM].
In the case of CC(C)CCCCCOC(=O)c1ccccc1C(=O)OCCCCCC(C)C, the “activation” value is reported as inactive: -2.77%.
With CCc1ccccc1N the Potency was inconclusive: 77 µM [activator, partial curve, poor fit].
In the case of c1cncc([C@@H]2CCCCN2)c1, the activation is reported as inconclusive: 1.07% [phenotype inactive].
In the case of N#C/C(N)=C(/N)C#N, the Potency is reported as inconclusive: 66.6 µM [activator, single point].
With S=C=Nc1ccccc1 the Potency was active: 70.8 µM.
With Nn1cnnc1 the Potency was “inactive”.
For Clc1ccccc1-c1nnc(-c2ccccc2Cl)nn1, the Potency was active: 6.8 µM and inconclusive: 6.09 µM [activator, partial curve].
In the case of CCCN(CCC)N=O, the activation is reported as inconclusive: -1.01% [phenotype inactive].
With CN(C)CCC#N the Potency was “inactive”.
With CCN(CC)C(=O)SCc1ccc(Cl)cc1 the Potency was inconclusive: 31.5 µM [activator, partial curve, poor fit] and the activation was inconclusive: 15.5% [phenotype inactive].
For NNC(=O)c1cccnc1, the Potency was active: 30.7 µM.
In the case of CCC(Br)(CC)C(=O)NC(N)=O, the activation is reported as inconclusive: -0.225% [phenotype inactive].
For O=C1C[C@@H]2OCC=C3CN4CC[C@]56c7ccccc7N1[C@H]5[C@H]2[C@H]3C[C@H]46, the “activation” value was inactive: -2.83%.
In the case of SCc1ccccc1, the Potency is reported as inconclusive: 62.9 µM [activator, partial curve, poor fit].
In the case of CC1=C(C(=O)Nc2ccccc2)SCCO1, the Potency is reported as active: 15.6 µM and inconclusive: 30.6 µM [activator, partial curve].
With CC(c1ccc(O)cc1)c1ccc(O)cc1 the Potency was inconclusive: 51.1 µM [activator, partial curve, poor fit].
In the case of O=Cc1ccc(Cl)cc1Cl, the “activation” value is reported as inactive: 0.0417% [at 94.8 µM].
In the case of COC(C)(C)CCCC(C)C/C=C/C(C)=C/C(=O)OC(C)C (stereo not drawn), the Potency is reported as inconclusive: 75.7 µM [activator, partial curve, poor fit].
For CC(C)OS(C)(=O)=O, the “activation” value was inactive: -0.904% [at 94.8 µM].
With c1coc(-c2nc3ccccc3[nH]2)c1 the Potency was active: 3.86 µM.
With O=Cc1ccco1 the Potency was “inactive”.
